Source: patent US20250084056A1, “SUBSTITUTED OXOISOINDOLINYL PIPERIDINE-2,6-DIONE COMPOUNDS” (BRISTOL-MYERS SQUIBB COMPANY, priority 2023, published 2025)
Some entries share one result that the patent states for a list of compounds.

Sequences of proteins named here, by UniProt entry; tags and fusion partners are left off. A change or cut given only in a name is not applied to a line headed by its entry.
UniProt P24864, whole entry: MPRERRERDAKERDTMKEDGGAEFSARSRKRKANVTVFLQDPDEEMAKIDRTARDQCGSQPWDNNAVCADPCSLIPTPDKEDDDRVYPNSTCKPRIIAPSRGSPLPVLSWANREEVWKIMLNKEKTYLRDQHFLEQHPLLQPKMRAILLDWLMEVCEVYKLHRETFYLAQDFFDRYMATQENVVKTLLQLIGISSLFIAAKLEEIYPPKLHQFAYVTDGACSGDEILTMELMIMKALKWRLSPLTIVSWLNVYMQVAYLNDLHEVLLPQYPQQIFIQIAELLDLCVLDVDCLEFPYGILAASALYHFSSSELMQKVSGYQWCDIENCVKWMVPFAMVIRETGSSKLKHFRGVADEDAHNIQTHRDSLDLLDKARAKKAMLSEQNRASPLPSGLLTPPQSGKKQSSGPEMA
UniProt Q96SW2: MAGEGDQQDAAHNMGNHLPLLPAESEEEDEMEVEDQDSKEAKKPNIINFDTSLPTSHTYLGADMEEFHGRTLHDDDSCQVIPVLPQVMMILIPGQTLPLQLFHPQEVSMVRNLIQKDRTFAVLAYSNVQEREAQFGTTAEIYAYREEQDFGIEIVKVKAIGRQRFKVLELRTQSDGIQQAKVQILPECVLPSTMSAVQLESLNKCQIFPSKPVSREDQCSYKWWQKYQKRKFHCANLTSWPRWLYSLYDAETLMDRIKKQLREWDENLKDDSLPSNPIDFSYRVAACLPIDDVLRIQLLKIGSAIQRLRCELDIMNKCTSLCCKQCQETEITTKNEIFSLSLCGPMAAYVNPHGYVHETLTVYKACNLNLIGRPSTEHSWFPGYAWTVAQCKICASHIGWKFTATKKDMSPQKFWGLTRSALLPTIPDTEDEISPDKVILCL

These compounds were tested against Cyclin E1 (Homo sapiens, UniProt P24864+Q96SW2) (assay: Cyclin E1 Cellular Degradation Assay (MSD)). Details: degradation of Cyclin E1 over degradation of GSPT1, Table 18.
Type: cell-based
Parameters: endogenous in cells; host or cells: OVCAR3
How it was run: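 Cyclin E1 remaining after 24 h compound exposure of OVCAR3 cells was quantified in lysates by electrochemiluminescent MSD sandwich assay. DC50 (50% response concentration) and Dmax (maximum response) were calculated, with 110% response set by a reference compound at […].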

selectivity, ratio of GSPT1 DC50/Cyclin E1 DC50, at least 9:
O=C1CCC(N2Cc3ccc(COC(=O)Nc4ccc(Oc5ccc(F)cc5Cl)cc4)c(OC4CCC4)c3C2=O)C(=O)N1 (stereo not shown) [Example 128, [4-cyclobutoxy-2-(2,6-dioxopiperidin-3-yl)-3-oxo-2,3-dihydro-1H-isoindol-5-yl]methyl N-[4-(2-chloro-4-fluorophenoxy)phenyl]carbamate]
O=C1CCC(N2Cc3ccc(COC(=O)Nc4ccc(Oc5ccc(F)c(F)c5)cc4)c(OC4COC4)c3C2=O)C(=O)N1 (stereo not shown) [Example 129, [2-(2,6-dioxopiperidin-3-yl)-4-(oxetan-3-yloxy)-3-oxo-2,3-dihydro-1H-isoindol-5-yl]methyl N-[4-(3,4-difluorophenoxy)phenyl]carbamate]
O=C1CCC(N2Cc3ccc(COC(=O)Nc4ccc(Oc5ccc(F)c(F)c5)cc4)c(OC4CCOCC4)c3C2=O)C(=O)N1 (stereo not shown) [Example 130, [2-(2,6-dioxopiperidin-3-yl)-4-(oxan-4-yloxy)-3-oxo-2,3-dihydro-1H-isoindol-5-yl]methyl N-[4-(3,4-difluorophenoxy)phenyl]carbamate]
O=C1CCC(N2Cc3ccc(COC(=O)Nc4ccc(Oc5ccccc5Cl)cc4)c(OC4CCOCC4)c3C2=O)C(=O)N1 (stereo not shown) [Example 131, [2-(2,6-dioxopiperidin-3-yl)-4-(oxan-4-yloxy)-3-oxo-2,3-dihydro-1H-isoindol-5-yl]methyl N-[4-(2-chlorophenoxy)phenyl]carbamate]
O=C1CCC(N2Cc3ccc(COC(=O)Nc4ccc(Oc5ccc(F)c(F)c5)cc4F)c(OC4CCOCC4)c3C2=O)C(=O)N1 (stereo not shown) [Example 132, [2-(2,6-dioxopiperidin-3-yl)-4-(oxan-4-yloxy)-3-oxo-2,3-dihydro-1H-isoindol-5-yl]methyl N-[4-(3,4-difluorophenoxy)-2-fluorophenyl]carbamate]
O=C1CCC(N2Cc3ccc(COC(=O)Nc4ccc(Oc5ccc(F)cc5)cc4)c(OC4CCOCC4)c3C2=O)C(=O)N1 (stereo not shown) [Example 133, [2-(2,6-dioxopiperidin-3-yl)-4-(oxan-4-yloxy)-3-oxo-2,3-dihydro-1H-isoindol-5-yl]methyl N-[4-(4-fluorophenoxy)phenyl]carbamate]
O=C1CCC(N2Cc3ccc(COC(=O)Nc4ccc(Oc5ccccc5)cc4)c(OC4CCOCC4)c3C2=O)C(=O)N1 (stereo not shown) [Example 134, [2-(2,6-dioxopiperidin-3-yl)-4-(oxan-4-yloxy)-3-oxo-2,3-dihydro-1H-isoindol-5-yl]methyl N-(4-phenoxyphenyl)carbamate]
O=C1CCC(N2Cc3ccc(COC(=O)Nc4ccc(Oc5ccc(F)cc5)cc4F)c(OC4CCOCC4)c3C2=O)C(=O)N1 (stereo not shown) [Example 135, [2-(2,6-dioxopiperidin-3-yl)-4-(oxan-4-yloxy)-3-oxo-2,3-dihydro-1H-isoindol-5-yl]methyl N-[2-fluoro-4-(4-fluorophenoxy)phenyl]carbamate]
O=C1CCC(N2Cc3ccc(COC(=O)Nc4ccc(Oc5ccc(F)cc5F)cc4F)c(OC4CCOCC4)c3C2=O)C(=O)N1 (stereo not shown) [Example 136, [2-(2,6-dioxopiperidin-3-yl)-4-(oxan-4-yloxy)-3-oxo-2,3-dihydro-1H-isoindol-5-yl]methyl N-[4-(2,4-difluorophenoxy)-2-fluorophenyl]carbamate]
O=C1CCC(N2Cc3ccc(COC(=O)Nc4ccc(Oc5ccc(F)c(F)c5)cc4)c(OC4CCCCC4)c3C2=O)C(=O)N1 (stereo not shown) [Example 137, [4-(cyclohexyloxy)-2-(2,6-dioxopiperidin-3-yl)-3-oxo-2,3-dihydro-1H-isoindol-5-yl]methyl N-[4-(3,4-difluorophenoxy)phenyl]carbamate]
CC(C)COc1c(COC(=O)Nc2ccc(Oc3ccc(F)c(F)c3)cc2)ccc2c1C(=O)N(C1CCC(=O)NC1=O)C2 (stereo not shown) [Example 138, [2-(2,6-dioxopiperidin-3-yl)-4-(2-methylpropoxy)-3-oxo-2,3-dihydro-1H-isoindol-5-yl]methyl N-[4-(3,4-difluorophenoxy)phenyl]carbamate]
O=C1CCC(N2Cc3ccc(COC(=O)Nc4ccc(Oc5ccc(F)cc5F)cc4)c(OC4CCOCC4)c3C2=O)C(=O)N1 (stereo not shown) [Example 139, [2-(2,6-dioxopiperidin-3-yl)-4-(oxan-4-yloxy)-3-oxo-2,3-dihydro-1H-isoindol-5-yl]methyl N-[4-(2,4-difluorophenoxy)phenyl]carbamate]
O=C1CCC(N2Cc3ccc(COC(=O)Nc4ccc(Oc5cc(F)cc(F)c5)cc4F)c(OC4CCOCC4)c3C2=O)C(=O)N1 (stereo not shown) [Example 140, [2-(2,6-dioxopiperidin-3-yl)-4-(oxan-4-yloxy)-3-oxo-2,3-dihydro-1H-isoindol-5-yl]methyl N-[4-(3,5-difluorophenoxy)-2-fluorophenyl]carbamate]
O=C1CCC(N2Cc3ccc(COC(=O)Nc4ccc(Oc5ccc(F)c(F)c5)cc4)c(O[C@@H]4CCCOC4)c3C2=O)C(=O)N1 (stereo partly drawn) [Example 141, [2-(2,6-dioxopiperidin-3-yl)-4-[(3R)-oxan-3-yloxy]-3-oxo-2,3-dihydro-1H-isoindol-5-yl]methyl N-[4-(3,4-difluorophenoxy)phenyl]carbamate]
O=C1CCC(N2Cc3ccc(COC(=O)Nc4ccc(Oc5ccccc5)cc4)c(O[C@@H]4CCCOC4)c3C2=O)C(=O)N1 (stereo partly drawn) [Example 142, [2-(2,6-dioxopiperidin-3-yl)-4-[(3R)-oxan-3-yloxy]-3-oxo-2,3-dihydro-1H-isoindol-5-yl]methyl N-(4-phenoxyphenyl)carbamate]
O=C1CCC(N2Cc3ccc(COC(=O)Nc4ccc(Oc5cccc(F)c5)cc4)c(O[C@@H]4CCCOC4)c3C2=O)C(=O)N1 (stereo partly drawn) [Example 143, [2-(2,6-dioxopiperidin-3-yl)-4-[(3R)-oxan-3-yloxy]-3-oxo-2,3-dihydro-1H-isoindol-5-yl]methyl N-[4-(3-fluorophenoxy)phenyl]carbamate]
O=C1CCC(N2Cc3ccc(COC(=O)Nc4ccc(Oc5ccc(F)cc5)cc4)c(O[C@@H]4CCCOC4)c3C2=O)C(=O)N1 (stereo partly drawn) [Example 144, [2-(2,6-dioxopiperidin-3-yl)-4-[(3R)-oxan-3-yloxy]-3-oxo-2,3-dihydro-1H-isoindol-5-yl]methyl N-[4-(4-fluorophenoxy)phenyl]carbamate]
O=C1CCC(N2Cc3ccc(COC(=O)Nc4ccc(Oc5ccc(F)cc5F)cc4)c(O[C@@H]4CCCOC4)c3C2=O)C(=O)N1 (stereo partly drawn) [Example 145, [2-(2,6-dioxopiperidin-3-yl)-4-[(3R)-oxan-3-yloxy]-3-oxo-2,3-dihydro-1H-isoindol-5-yl]methyl N-[4-(2,4-difluorophenoxy)phenyl]carbamate]
O=C1CCC(N2Cc3ccc(COC(=O)Nc4ccc(Oc5ccc(F)c(F)c5)cc4F)c(O[C@@H]4CCCOC4)c3C2=O)C(=O)N1 (stereo partly drawn) [Example 146, [2-(2,6-dioxopiperidin-3-yl)-4-[(3R)-oxan-3-yloxy]-3-oxo-2,3-dihydro-1H-isoindol-5-yl]methyl N-[4-(3,4-difluorophenoxy)-2-fluorophenyl]carbamate]
